Test results as given in the supplement of paper PMC10849652.
The list shows a part of the results.

Chains of the proteins cited; added tags and fusions are not shown. Lines headed by an entry give the natural chain unless they say otherwise; changes in a name come on top.
UniProt Q9P086: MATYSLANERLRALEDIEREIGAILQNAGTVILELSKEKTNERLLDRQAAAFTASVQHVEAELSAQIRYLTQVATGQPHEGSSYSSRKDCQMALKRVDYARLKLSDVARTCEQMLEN
UniProt Q14703: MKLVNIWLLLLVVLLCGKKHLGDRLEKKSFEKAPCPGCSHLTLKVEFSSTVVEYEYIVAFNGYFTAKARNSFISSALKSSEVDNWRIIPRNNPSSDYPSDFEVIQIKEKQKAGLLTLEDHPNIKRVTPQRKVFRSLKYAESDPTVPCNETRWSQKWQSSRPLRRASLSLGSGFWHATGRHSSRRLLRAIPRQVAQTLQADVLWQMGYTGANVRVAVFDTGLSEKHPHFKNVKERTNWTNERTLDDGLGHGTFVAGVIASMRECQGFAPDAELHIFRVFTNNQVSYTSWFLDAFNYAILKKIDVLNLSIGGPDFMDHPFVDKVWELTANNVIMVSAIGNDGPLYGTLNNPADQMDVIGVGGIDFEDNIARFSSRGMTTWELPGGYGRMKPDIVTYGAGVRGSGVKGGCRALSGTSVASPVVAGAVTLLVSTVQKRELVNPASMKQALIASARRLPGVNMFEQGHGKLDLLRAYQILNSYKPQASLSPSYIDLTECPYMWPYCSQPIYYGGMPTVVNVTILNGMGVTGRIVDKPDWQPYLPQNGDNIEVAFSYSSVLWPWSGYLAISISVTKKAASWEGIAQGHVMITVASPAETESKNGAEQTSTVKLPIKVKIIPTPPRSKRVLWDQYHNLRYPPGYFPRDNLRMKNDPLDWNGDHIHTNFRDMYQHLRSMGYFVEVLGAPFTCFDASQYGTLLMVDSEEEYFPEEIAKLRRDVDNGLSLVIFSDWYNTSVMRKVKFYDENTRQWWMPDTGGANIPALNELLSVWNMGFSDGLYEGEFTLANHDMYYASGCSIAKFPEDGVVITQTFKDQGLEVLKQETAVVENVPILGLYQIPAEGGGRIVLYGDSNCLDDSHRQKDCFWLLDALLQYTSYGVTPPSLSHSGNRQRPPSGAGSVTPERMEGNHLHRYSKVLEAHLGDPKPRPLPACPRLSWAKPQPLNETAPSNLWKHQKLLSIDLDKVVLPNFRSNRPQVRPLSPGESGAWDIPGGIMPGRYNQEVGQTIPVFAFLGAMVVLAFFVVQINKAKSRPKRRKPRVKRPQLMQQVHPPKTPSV
UniProt P08582: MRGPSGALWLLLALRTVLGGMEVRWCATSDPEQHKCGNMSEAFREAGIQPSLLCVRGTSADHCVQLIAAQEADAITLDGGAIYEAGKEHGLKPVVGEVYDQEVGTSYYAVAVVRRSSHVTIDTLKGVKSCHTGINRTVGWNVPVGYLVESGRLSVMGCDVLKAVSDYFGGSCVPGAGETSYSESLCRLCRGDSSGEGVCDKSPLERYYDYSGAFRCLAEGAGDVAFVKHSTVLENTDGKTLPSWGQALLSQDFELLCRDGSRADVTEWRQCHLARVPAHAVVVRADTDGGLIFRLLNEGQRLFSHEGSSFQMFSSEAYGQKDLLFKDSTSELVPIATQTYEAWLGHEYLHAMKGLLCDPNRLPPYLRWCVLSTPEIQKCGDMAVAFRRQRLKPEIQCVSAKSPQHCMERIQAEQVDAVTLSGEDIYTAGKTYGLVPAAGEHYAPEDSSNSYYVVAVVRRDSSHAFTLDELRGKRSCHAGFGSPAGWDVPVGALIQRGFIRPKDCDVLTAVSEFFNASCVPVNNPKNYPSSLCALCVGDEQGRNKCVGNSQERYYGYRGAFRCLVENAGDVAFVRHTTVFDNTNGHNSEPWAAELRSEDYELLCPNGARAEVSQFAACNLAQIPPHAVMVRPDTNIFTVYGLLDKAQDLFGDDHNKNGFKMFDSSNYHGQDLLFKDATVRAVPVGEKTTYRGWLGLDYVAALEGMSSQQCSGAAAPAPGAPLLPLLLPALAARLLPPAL
UniProt O00470: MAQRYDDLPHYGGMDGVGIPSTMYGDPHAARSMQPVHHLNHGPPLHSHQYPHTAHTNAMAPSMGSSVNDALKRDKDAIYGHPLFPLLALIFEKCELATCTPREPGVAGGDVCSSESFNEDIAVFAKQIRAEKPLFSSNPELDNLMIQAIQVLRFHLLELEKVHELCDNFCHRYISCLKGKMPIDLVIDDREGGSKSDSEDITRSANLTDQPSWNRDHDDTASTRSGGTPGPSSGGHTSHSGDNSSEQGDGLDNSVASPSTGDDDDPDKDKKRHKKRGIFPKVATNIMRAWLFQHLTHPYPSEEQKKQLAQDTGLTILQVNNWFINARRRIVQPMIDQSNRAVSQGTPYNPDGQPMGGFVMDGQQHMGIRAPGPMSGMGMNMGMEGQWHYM
UniProt Q14680: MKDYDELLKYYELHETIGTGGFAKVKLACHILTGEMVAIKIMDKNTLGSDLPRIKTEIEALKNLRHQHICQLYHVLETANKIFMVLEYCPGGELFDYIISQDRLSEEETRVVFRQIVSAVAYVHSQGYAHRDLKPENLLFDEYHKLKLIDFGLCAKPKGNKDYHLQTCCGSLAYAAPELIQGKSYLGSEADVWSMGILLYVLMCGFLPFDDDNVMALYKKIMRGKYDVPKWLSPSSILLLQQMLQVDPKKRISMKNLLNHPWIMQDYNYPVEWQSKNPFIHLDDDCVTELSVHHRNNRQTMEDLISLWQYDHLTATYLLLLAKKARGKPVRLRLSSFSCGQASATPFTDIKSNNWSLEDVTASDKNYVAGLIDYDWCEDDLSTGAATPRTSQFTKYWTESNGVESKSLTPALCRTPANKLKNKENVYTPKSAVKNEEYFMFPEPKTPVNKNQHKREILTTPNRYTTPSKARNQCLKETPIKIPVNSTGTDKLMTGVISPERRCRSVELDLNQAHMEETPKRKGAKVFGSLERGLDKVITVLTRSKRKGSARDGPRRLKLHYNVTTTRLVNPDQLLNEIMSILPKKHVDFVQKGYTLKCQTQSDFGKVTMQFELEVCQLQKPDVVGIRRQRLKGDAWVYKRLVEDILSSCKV
UniProt Q9NWA0: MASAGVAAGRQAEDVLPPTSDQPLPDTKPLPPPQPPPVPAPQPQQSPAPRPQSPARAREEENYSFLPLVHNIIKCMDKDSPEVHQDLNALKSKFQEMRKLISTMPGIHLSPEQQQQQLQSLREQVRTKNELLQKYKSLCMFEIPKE
UniProt Q5VZF2: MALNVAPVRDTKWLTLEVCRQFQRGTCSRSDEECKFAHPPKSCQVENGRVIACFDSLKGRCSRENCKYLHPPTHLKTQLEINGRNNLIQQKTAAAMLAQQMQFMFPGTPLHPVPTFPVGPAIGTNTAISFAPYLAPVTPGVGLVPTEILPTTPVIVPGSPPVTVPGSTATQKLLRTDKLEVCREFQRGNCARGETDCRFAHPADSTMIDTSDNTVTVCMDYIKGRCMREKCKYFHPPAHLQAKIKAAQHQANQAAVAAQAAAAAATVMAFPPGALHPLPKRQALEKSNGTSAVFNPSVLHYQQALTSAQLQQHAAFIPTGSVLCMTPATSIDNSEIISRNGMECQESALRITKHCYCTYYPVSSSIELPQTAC
UniProt P21741: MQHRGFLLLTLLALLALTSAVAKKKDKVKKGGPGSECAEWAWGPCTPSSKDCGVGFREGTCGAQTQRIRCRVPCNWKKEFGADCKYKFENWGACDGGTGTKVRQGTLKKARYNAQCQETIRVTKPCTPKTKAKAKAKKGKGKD
UniProt Q8NI22: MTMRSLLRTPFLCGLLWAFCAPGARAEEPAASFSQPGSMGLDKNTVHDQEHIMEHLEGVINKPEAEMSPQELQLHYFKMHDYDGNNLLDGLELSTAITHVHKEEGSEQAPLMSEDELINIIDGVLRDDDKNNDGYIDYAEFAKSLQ
UniProt Q86XA0: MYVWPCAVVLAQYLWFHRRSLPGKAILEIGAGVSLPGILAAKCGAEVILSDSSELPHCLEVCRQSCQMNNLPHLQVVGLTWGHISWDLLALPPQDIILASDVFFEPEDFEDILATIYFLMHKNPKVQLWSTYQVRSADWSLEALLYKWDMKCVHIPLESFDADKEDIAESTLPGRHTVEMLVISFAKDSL
UniProt O00255, whole entry, looked up: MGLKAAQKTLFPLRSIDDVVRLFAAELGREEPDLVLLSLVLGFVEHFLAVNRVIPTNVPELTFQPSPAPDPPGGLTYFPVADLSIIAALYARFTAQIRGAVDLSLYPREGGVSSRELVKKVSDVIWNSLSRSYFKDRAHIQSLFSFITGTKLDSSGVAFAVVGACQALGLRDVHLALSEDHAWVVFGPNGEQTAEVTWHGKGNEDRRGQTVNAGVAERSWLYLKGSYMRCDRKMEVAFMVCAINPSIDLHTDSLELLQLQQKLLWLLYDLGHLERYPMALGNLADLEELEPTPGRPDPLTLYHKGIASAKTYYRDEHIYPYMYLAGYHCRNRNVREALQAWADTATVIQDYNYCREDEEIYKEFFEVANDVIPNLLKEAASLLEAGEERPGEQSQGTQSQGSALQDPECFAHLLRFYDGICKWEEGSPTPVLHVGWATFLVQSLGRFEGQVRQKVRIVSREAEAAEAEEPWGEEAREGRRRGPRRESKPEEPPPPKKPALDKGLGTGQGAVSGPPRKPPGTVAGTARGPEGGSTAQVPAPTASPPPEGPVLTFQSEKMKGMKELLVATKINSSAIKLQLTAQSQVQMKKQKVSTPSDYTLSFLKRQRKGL
UniProt O95243: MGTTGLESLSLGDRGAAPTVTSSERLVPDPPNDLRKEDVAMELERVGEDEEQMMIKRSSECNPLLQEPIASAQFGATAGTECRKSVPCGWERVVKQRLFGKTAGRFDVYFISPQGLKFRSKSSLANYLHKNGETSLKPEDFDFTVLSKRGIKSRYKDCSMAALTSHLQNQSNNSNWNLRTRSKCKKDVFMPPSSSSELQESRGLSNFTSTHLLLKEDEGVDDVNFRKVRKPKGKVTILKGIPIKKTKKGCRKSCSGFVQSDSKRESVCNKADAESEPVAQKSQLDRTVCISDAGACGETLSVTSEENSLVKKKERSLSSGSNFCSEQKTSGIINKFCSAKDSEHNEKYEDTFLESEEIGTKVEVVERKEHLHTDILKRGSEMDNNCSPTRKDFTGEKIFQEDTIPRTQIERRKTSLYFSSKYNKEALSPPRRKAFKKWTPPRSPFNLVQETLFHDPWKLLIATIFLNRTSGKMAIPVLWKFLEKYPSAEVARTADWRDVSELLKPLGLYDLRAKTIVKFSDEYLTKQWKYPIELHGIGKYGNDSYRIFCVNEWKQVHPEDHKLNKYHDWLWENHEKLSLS
UniProt A4D2B0: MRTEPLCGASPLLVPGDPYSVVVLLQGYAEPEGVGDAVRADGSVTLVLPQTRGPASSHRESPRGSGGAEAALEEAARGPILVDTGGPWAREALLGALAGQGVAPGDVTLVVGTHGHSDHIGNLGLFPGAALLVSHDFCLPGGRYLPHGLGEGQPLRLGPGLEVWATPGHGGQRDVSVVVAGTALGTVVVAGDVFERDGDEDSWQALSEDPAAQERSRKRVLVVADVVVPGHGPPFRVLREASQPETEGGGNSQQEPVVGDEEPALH
UniProt Q9NX70: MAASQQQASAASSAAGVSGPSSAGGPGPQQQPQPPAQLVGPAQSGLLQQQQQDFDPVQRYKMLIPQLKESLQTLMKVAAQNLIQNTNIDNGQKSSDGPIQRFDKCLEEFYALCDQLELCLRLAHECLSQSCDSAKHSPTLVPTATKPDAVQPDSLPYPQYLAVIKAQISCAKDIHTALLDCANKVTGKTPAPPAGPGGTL
UniProt Q5SR56: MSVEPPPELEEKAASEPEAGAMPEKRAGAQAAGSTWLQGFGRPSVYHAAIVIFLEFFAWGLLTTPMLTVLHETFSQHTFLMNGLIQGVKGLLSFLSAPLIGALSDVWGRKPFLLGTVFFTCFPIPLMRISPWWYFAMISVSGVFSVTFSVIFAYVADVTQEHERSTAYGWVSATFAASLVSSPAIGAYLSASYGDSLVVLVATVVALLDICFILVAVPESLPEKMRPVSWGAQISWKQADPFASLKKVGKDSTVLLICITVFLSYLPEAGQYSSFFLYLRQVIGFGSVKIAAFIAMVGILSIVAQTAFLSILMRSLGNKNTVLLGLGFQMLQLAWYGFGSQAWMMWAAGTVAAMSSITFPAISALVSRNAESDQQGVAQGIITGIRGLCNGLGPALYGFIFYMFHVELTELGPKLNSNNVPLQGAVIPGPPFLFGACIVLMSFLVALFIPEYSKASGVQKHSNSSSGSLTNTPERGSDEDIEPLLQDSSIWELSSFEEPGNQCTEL
UniProt P50579: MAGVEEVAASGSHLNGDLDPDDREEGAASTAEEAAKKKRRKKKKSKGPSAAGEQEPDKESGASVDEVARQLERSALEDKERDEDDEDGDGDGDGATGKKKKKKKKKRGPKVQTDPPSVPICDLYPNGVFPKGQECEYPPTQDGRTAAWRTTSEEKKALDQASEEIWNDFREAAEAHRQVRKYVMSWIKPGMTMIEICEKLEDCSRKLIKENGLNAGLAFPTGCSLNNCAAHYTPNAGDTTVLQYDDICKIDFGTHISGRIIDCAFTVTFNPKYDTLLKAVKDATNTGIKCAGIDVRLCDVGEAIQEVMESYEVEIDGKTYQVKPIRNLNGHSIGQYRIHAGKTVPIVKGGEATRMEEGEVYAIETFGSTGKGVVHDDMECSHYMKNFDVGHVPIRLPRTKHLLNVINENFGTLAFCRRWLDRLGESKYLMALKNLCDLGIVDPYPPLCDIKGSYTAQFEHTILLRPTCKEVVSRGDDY

Compound: C=CC(=O)N1CCC[C@@H](n2nc(-c3ccc(Oc4ccccc4)cc3)c3c(N)ncnc32)C1 [ibrutinib]
Test: log2 fold change, soluble protein after heating vs DMSO (PISA); higher = thermal stabilisation; K562 lysate, 10 uM; active = over 0.2 and 3.5 SD of the protein, either way, in both replicates (recomputed)
How it was run: (§1)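 Thermal stability, expressed as log-two fold change relative to solvent controls, is given from duplicates. Crude K562 extract in PBS pH 7.4 with 1 mM MgCl2, at 1 mg/mL protein, was treated with 10 μM compound for 30 min and heated in aliquots for 3 min across 48°C-58°C. After pooling, adjustment to 0.5% NP-40 at 4°C and centrifugation at 21,000xg for 90 min, supernatant protein was measured by TMTpro 16plex LC-MS/MS with channel sums equalised.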

| Target | log2 fold change |
| --- | --- |
| MED11 (UniProt Q9P086) | inactive: -0.074 |
| MEGF9 (UniProt Q9H1U4) | inactive: 0.216 |
| MDM2 isoform 11 (UniProt Q00987) | inactive: -0.071 |
| MBTPS1 (UniProt Q14703) | inactive: -0.243 |
| MELTF (UniProt P08582) | inactive: -0.007 |
| MEIS1 (UniProt O00470) | inactive: 0.117 |
| MFSD6 (UniProt Q6ZSS7) | inactive: -0.092 |

Compound: CC(=O)c1cnc2ccc(-c3cc(Cl)c(O)c(Cl)c3)nc2c1N[C@H]1CC[C@H](CN(C)C)CC1
Test: as above
How it was run: as §1

| Target | log2 fold change |
| --- | --- |
| MATK isoform 2 (UniProt P42679) | inactive: -0.019 |
| MFSD12 isoform 3 (UniProt Q6NUT3) | inactive: 0.008 |
| MCTS2P, A0A3B3IRV3 | inactive: -0.347 |
| MELK (UniProt Q14680) | inactive: -0.128 |
| MED9 (UniProt Q9NWA0) | inactive: 0.019 |
| MCEMP1 (UniProt Q8IX19) | inactive: -0.174 |
| MBNL2 (UniProt Q5VZF2) | inactive: 0.084 |
| MEF2C isoform 2 (UniProt Q06413) | inactive: 0.007 |
| MDK (UniProt P21741) | inactive: 0.01 |
| MCFD2 isoform 2 (UniProt Q8NI22) | inactive: 0.03 |
| MDM1 (UniProt Q8TC05) | inactive: -0.006 |
| METTL23 (UniProt Q86XA0) | inactive: -0.022 |
| MED28 (UniProt Q9H204) | inactive: -0.067 |
| MEN1 (UniProt O00255) | inactive: -0.22 |
| MBD4 (UniProt O95243) | inactive: 0.248 |
| MBLAC1 (UniProt A4D2B0) | inactive: -0.059 |

Compound: CC(C)(C)Cn1c(N)nc2ccc(-c3[nH]c(C(C)(C)C)nc3-c3ccc(F)cc3)nc21 [ralimetinib]
Test: as above
How it was run: as §1

| Target | log2 fold change |
| --- | --- |
| MATK isoform 2 (UniProt P42679) | inactive: 0.083 |
| MCTS2P, A0A3B3IRV3 | inactive: -0.03 |
| MELK (UniProt Q14680) | inactive: -0.061 |
| MEGF9 (UniProt Q9H1U4) | inactive: -0.101 |
| MDM2 isoform 11 (UniProt Q00987) | inactive: 0.038 |
| MED9 (UniProt Q9NWA0) | inactive: 0.007 |
| MBNL2 (UniProt Q5VZF2) | inactive: 0.046 |
| MBTD1 (UniProt Q05BQ5) | inactive: 0.088 |
| MED29 (UniProt Q9NX70) | inactive: -0.028 |
| MEX3A (UniProt A1L020) | inactive: -0.21 |
| MDK (UniProt P21741) | inactive: 0.018 |
| MFSD14B (UniProt Q5SR56) | inactive: 0.111 |
| MDM1 (UniProt Q8TC05) | inactive: 0.037 |
| MBTPS1 (UniProt Q14703) | inactive: 0.056 |
| MED28 (UniProt Q9H204) | inactive: -0.032 |
| MEN1 (UniProt O00255) | inactive: -0.049 |
| MFAP3 (UniProt P55082) | inactive: 0.051 |
| METAP2 isoform 2 (UniProt P50579) | inactive: -0.07 |
| METTL15 (UniProt A6NJ78) | inactive: 0.037 |
| MFSD6 (UniProt Q6ZSS7) | inactive: 0.002 |
